According to patent US20190300576A1:
Results are given in words; binding and its absence hold for the method and conditions named. For some assays here: In cells and extracts the contact can be indirect. Some results given as binding are weak or reduced against the parent protein; the word gives no strength.

Chains of the proteins cited; added tags and fusions are not shown. Residues count along the entry.
UniProt Q00987, residues 25-109: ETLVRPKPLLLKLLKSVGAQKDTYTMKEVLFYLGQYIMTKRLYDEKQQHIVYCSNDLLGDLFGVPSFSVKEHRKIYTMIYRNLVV

B1: peptide 7b (peptide)
peptide: LTFEHYWAQYTSK
modifications: N-terminal acetylation; C-terminal amide
B2: peptide 8b (peptide)
peptide: LTLEHYWAQLTSK
modifications: N-terminal acetylation; C-terminal amide
B3: peptide 9b (peptide)
peptide: LTYEHYWAQLTSK
modifications: N-terminal acetylation; C-terminal amide
B4: sequence 7 (Library 2 member) (peptide)
peptide: LTFEHYWAQYTSK
modifications: C-terminal amide
B5: sequence 8 (Library 2 member) (peptide)
peptide: LTLEHYWAQLTSK
modifications: C-terminal amide
B6: sequence 9 (Library 2 member) (peptide)
peptide: LTYEHYWAQLTSK
modifications: C-terminal amide
B7: (SEQ ID NO: 77) (peptide)
peptide: LTFQHYWAGLTSK
modifications: C-terminal amide (-NH2)
B8: (SEQ ID NO: 80) (peptide)
peptide: LTFPHYWAALTSK
modifications: C-terminal amide (-NH2)
B9: (SEQ ID NO: 81) (peptide)
peptide: LTFEHYWAALTSK
modifications: C-terminal amide (-NH2)
B10: (SEQ ID NO: 82) (peptide)
peptide: LTFAHEWALLTSK
modifications: C-terminal amide (-NH2)
B11: (SEQ ID NO: 83) (peptide)
peptide: LTFEHEWALLTSK
modifications: C-terminal amide (-NH2)
B12: (SEQ ID NO: 84) (peptide)
peptide: LTFFHYWAQLTSK
modifications: C-terminal amide (-NH2)
B13: (SEQ ID NO: 85) (peptide)
peptide: LTFSHYWASLTSK
modifications: C-terminal amide (-NH2)
B14: (SEQ ID NO: 86) (peptide)
peptide: LTFEHEWAQLTSK
modifications: C-terminal amide (-NH2)
B15: (SEQ ID NO: 87) (peptide)
peptide: LTFEHYWAALTSK
modifications: C-terminal amide (-NH2)
B16: (SEQ ID NO: 88) (peptide)
peptide: LTFPHYWAQLTSK
modifications: C-terminal amide (-NH2)
B17: (SEQ ID NO: 89) (peptide)
peptide: LTFQHYWASLTSK
modifications: C-terminal amide (-NH2)
B18: (SEQ ID NO: 90) (peptide)
peptide: LTFQHFWAQLTSK
modifications: C-terminal amide (-NH2)
B19: (SEQ ID NO: 91) (peptide)
peptide: LTFFHYWAGLTSK
modifications: C-terminal amide (-NH2)
B20: (SEQ ID NO: 93) (peptide)
peptide: LTFFHAWAQLTSK
modifications: C-terminal amide (-NH2)

These binders were tested against SUMO-^25-109MDM2 (UniProt Q00987) (assay: BLI).

binding, binds:
B1, B2, B3

The binders below were run against SUMO-^25-109MDM2 (UniProt Q00987) (assay: HPSEC affinity selection from Library 2, low stringency, LC-MS).

binding, binds:
B4, B5, B6

The binders below were run against SUMO-^25-109MDM2 (UniProt Q00987) (assay: HPSEC affinity selection from Library 1 by MDM2, LC-MS/MS de novo decoding).

binding, binds:
B7, B8, B9, B10, B11, B12, B13, B14, B15, B16, B17, B18, B19, B20
